At least one structure is not confirmed: it was looked up by name or label, or the drawing left a doubt.
Key:
breast cancer = conditions: induced neoplasia; cited from earlier work
[1] = test system: U937 cells (a human myelomonocytic line); conditions: cited from earlier work
[2] = test system: C2C12 (a murine myoblast line); conditions: C2C12 cells; cited from earlier work
[3] = test system: PC12 cells (a pheochromocytoma cell line); conditions: hydroxytyrosol alone; cited from earlier work
[4] = test system: HL60 and HL60R cancer lines; conditions: cited from earlier work
[5] = test system: primary human keratinocytes (Ker-CT); assay: MTT colorimetric viability/proliferation assay on human keratinocytes; assay type: cell-based; conditions: 24 hours of treatment
[6] = test system: colorectal cancer cell lines, metastatic breast cancer, ER-negative breast cancer cell lines; conditions: metastatic breast cancer and ER-negative breast cancer cell lines; cited from earlier work

SMILES	breast cancer proliferation in vivo (breast cancer)	anti-apoptotic effect [1]	anti-apoptotic effect [2]	cytoprotective effect [3]	chemopreventive effect [4]	viability/proliferation of primary human keratinocytes (MTT, optical density at 540 nm) [5]	anti-cancer potential [6]
OCCc1ccc(O)c(O)c1 [Hydroxytyrosol, hydroxytyrosol]	inhibits breast cancer proliferation	anti-apoptotic	anti-apoptotic	cytoprotective effect	chemopreventive	stimulates the proliferation	
C/C=C1/[C@H](O[C@@H]2O[C@H](CO)[C@@H](O)[C@H](O)[C@H]2O)OC=C(C(=O)OC)[C@H]1CC(=O)OCCc1ccc(O)c(O)c1 [oleuropein]							has anti-cancer potential

— patent US20210393726A1, “USE OF EXTRACT OF VEGETATION WATERS IN THE REGENERATION OF EPITHELIAL TISSUE” (FATTORIA LA VIALLAD DI GIANNI, ANTONIO E BANDINO LO FRANCO …, priority 2017, published 2021)
